From the supplement of paper PMC12067093, “Discovery and optimisation of a covalent ligand for TRIM25 and its application to targeted protein ubiquitination” (Chemical Science, 2025)
The list shows a part of the results.

By UniProt entry, the sequences of proteins in these tests, tags left out. Where a name states a change or a piece, a line headed by the entry shows the natural chain unless it says otherwise.
UniProt O75427: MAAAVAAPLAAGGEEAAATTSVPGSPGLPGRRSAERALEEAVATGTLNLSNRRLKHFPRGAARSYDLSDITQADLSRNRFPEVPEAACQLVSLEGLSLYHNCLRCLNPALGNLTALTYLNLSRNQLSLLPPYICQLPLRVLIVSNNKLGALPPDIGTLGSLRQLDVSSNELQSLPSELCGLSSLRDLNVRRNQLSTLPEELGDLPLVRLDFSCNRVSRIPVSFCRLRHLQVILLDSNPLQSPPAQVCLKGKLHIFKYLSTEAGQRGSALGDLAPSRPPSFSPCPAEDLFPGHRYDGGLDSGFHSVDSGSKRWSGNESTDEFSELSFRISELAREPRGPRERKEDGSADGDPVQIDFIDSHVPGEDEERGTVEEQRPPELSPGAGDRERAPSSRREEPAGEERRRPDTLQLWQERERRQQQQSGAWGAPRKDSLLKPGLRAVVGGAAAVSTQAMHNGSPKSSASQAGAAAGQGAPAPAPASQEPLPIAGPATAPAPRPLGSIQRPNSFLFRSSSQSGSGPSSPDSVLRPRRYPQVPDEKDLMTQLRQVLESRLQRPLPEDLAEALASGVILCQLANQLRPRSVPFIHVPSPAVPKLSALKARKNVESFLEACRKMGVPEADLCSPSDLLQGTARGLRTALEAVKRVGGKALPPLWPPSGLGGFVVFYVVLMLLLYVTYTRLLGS
UniProt Q96II8: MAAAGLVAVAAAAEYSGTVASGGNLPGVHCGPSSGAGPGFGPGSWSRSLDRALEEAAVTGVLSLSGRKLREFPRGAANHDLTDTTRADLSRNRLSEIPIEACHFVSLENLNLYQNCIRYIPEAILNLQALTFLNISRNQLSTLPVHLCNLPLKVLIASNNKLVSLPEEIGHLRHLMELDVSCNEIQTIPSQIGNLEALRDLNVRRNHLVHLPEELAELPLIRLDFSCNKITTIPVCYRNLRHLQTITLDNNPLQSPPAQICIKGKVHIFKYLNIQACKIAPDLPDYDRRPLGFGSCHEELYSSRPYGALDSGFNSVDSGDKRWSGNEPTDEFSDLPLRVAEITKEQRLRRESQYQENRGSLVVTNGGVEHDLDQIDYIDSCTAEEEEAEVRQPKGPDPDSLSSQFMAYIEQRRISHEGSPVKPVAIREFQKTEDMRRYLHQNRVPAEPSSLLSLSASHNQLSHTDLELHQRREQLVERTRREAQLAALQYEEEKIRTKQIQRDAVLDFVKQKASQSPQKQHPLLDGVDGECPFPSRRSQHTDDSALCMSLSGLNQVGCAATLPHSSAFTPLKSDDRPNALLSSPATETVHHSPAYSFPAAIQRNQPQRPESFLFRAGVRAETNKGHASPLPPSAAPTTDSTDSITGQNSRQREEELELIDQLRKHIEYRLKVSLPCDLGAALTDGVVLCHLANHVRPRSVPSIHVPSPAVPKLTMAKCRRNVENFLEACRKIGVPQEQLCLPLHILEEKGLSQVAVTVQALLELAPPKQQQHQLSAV
UniProt P48449: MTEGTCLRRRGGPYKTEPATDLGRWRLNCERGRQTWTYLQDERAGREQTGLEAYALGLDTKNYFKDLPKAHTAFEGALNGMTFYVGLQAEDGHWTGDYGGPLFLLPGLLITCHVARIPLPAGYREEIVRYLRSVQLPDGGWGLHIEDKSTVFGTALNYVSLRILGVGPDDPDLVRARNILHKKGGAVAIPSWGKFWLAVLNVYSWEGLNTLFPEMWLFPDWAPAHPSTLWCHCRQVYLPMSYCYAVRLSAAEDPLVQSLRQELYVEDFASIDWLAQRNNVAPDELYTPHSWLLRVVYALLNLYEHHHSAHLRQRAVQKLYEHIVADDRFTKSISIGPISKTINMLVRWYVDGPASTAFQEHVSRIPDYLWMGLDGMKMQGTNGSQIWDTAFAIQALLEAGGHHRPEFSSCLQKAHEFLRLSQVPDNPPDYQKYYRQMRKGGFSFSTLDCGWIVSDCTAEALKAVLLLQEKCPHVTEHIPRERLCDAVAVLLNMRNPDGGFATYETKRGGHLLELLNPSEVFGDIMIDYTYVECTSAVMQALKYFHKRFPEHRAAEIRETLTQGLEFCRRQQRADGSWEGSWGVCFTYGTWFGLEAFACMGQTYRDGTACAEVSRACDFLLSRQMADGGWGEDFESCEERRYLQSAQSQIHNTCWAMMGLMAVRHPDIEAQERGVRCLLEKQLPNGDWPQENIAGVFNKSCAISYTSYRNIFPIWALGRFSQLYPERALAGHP
UniProt Q93052: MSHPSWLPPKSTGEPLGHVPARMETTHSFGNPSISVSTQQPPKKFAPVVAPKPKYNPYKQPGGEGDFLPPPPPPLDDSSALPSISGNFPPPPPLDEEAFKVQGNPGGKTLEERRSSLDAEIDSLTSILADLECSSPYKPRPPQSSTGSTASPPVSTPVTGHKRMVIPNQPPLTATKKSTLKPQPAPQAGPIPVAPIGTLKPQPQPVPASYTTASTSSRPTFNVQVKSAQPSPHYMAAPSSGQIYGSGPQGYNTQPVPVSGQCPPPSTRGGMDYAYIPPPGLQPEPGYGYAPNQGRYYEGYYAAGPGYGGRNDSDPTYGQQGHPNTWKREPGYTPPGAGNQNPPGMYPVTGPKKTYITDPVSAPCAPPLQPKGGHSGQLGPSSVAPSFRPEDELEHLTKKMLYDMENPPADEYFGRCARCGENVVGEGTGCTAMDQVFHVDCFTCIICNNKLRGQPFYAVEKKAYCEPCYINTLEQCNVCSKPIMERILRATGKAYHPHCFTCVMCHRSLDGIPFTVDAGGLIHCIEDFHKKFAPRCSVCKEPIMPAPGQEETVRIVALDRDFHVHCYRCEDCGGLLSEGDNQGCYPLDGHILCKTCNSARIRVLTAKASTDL
UniProt Q8NF37: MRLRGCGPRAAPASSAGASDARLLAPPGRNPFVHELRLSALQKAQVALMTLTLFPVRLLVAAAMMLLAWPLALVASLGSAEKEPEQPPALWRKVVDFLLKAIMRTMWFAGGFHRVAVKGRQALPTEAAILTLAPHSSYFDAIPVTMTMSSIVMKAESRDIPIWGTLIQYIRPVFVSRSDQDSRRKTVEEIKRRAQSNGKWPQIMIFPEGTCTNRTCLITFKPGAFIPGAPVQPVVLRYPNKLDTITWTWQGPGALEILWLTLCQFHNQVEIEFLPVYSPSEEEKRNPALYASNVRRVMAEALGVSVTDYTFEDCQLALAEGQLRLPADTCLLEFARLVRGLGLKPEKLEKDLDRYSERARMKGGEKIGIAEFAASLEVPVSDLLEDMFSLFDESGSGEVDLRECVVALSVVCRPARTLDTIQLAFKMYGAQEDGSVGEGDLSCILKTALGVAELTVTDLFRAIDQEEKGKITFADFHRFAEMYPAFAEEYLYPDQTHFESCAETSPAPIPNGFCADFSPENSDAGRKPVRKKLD
UniProt Q8NHL6, whole entry: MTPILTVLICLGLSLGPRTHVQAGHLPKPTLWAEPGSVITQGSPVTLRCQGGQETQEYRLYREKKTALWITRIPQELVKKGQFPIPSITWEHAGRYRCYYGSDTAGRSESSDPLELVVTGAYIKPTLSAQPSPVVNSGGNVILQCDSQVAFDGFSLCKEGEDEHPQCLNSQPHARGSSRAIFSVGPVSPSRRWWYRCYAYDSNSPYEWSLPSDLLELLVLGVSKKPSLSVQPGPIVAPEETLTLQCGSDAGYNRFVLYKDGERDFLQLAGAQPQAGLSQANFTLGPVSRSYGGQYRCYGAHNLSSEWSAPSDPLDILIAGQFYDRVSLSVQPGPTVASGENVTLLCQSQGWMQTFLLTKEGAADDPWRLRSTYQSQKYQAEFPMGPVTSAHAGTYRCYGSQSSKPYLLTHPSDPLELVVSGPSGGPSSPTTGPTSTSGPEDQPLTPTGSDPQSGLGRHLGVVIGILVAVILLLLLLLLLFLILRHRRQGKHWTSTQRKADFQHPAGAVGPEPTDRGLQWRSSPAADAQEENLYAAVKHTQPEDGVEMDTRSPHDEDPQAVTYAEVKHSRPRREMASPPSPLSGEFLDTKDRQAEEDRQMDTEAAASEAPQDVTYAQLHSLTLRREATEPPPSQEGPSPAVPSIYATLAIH
UniProt O00453: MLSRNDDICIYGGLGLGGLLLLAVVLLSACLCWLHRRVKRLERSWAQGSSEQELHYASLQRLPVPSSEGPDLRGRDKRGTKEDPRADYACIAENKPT
UniProt Q9Y2U8: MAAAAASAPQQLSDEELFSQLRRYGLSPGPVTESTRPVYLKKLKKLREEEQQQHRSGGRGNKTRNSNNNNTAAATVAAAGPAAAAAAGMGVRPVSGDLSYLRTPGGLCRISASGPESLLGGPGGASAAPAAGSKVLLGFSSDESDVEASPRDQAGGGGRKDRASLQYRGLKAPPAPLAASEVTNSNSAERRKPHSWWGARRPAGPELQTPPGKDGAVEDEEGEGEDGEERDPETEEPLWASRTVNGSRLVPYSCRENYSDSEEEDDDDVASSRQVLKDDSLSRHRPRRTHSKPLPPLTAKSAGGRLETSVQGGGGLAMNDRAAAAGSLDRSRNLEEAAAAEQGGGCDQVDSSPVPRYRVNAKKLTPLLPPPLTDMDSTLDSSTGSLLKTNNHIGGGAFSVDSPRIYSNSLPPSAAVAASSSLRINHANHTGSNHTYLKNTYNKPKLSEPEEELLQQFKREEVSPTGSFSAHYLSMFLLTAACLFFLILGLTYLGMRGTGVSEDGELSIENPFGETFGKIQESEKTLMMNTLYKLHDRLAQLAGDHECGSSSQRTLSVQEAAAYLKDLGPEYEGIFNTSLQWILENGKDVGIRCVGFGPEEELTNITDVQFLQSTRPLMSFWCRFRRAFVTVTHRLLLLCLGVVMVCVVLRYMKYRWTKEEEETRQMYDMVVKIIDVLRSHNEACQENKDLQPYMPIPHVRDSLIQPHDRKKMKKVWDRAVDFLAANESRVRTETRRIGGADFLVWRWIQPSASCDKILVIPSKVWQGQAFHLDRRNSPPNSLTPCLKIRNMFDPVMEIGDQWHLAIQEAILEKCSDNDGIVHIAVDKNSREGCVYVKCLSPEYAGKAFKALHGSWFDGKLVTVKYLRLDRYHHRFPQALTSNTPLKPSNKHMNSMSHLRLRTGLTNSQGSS
UniProt Q9Y4Z0: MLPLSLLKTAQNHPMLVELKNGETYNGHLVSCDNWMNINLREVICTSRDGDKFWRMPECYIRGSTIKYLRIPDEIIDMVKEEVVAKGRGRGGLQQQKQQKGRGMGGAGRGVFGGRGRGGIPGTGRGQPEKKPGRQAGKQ
UniProt P36776: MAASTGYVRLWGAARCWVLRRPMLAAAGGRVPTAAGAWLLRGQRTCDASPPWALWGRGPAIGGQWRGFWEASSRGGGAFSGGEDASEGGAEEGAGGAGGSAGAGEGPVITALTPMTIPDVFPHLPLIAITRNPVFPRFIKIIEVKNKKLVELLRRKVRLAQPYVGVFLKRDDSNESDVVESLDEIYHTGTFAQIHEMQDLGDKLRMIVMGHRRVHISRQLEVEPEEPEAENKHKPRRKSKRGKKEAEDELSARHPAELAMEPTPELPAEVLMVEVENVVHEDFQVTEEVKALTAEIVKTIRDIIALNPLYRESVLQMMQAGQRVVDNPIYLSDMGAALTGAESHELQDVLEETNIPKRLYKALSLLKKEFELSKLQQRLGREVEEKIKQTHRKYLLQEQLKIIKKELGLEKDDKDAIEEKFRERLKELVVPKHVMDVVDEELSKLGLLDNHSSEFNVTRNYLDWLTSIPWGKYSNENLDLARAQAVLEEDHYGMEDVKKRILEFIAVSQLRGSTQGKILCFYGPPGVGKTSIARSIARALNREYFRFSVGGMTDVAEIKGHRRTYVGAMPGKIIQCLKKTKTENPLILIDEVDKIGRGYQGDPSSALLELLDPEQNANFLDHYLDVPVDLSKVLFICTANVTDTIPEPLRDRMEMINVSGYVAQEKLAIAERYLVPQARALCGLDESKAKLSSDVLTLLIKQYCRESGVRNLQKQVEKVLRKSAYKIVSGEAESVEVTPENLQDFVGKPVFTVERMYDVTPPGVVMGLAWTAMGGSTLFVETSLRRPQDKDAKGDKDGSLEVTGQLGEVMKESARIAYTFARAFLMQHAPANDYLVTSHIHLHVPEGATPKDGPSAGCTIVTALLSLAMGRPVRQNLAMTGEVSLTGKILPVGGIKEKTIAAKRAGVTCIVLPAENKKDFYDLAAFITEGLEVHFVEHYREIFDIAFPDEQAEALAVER
UniProt P09382, whole entry, looked up: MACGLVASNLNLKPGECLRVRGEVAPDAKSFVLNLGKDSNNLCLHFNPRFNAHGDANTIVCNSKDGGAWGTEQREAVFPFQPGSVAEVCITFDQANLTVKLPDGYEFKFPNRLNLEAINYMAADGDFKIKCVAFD
UniProt P48059, whole entry, looked up: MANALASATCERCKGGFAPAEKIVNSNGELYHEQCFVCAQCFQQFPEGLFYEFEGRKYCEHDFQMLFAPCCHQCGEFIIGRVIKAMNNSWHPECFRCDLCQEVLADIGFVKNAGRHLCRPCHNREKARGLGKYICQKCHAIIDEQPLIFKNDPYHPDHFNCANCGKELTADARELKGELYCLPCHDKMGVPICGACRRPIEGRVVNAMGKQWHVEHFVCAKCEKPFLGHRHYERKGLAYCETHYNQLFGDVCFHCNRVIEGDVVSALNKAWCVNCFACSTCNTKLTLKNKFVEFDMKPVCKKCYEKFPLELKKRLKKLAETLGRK

Compound: CC1Cc2ccccc2N1C(=O)C1CCCN(C1)C(=O)CCl (mixture of isomers) [TRIM25 ligand 11 (diastereomer mixture)]
Assay: probe-labelled cysteine peptide fold change vs DMSO (competition) (log2 fold change); higher = less target engagement (more negative = stronger competition)
Conditions: THP-1, incubation time: 4 h
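Note: competitive chemoproteomic profiling in live THP-1 cells with an iodoacetamide desthiobiotin (IA-DTB) probe, comparing probe-labelled peptide intensities in compound-treated cells against DMSO-treated controls.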

Row | Target | probe-labelled cysteine peptide fold change (10 µM) | probe-labelled cysteine peptide fold change (50 µM)
1 | LRCH4_O75427_134_NQLSLLPPYICQLPLR (UniProt O75427) | 0.321 | 0.234
2 | LRRC8A_Q8IWT6_768+776_GNRLECLPVELGECPLLK (UniProt Q8IWT6) | -0.15 | 0.0257
3 | LRRC8C_Q8TDW0_682_IEVLPSHLFLCNK (UniProt Q8TDW0) | 0.251 | 0.123
4 | LIPA_P38571_209_MFFALGPVASVAFCTSPMAK (UniProt P38571) | 0.0202 | 0.132
5 | LRPPRC_P42704_863_IHDVLCK (UniProt P42704) | 0.029 | -0.0148
6 | LRCH3_Q96II8_740_IGVPQEQLCLPLHILEEK (UniProt Q96II8) | -0.28 | -0.246
7 | LRPPRC_P42704_130_SCGSLLPELK (UniProt P42704) | 0.166 | 0.0887
8 | LSS_P48449_700_SCAISYTSYR (UniProt P48449) | -0.0251 | -0.0794
9 | LPP_Q93052_524_SLDGIPFTVDAGGLIHCIEDFHK (UniProt Q93052) | 0.00908 | -0.0913
10 | LPCAT1_Q8NF37_443_MYGAQEDGSVGEGDLSCILK (UniProt Q8NF37) | 0.114 | 0.0394
11 | LILRB1_Q8NHL6_49_CQGGQETQEYR (UniProt Q8NHL6) | 0.126 | 0.204
12 | LST1_O00453_90_ADYACIAENKPT (UniProt O00453) | -0.052 | -0.071
13 | LRCH4_O75427_283_GSALGDLAPSRPPSFSPCPAEDLFPGHR (UniProt O75427) | 0.0092 | -0.436
14 | LRCH4_O75427_102_NRFPEVPEAACQLVSLEGLSLYHNCLR (UniProt O75427) | 0.354 | 0.263
15 | LEMD3_Q9Y2U8_547_LAQLAGDHECGSSSQR (UniProt Q9Y2U8) | 0.0851 | -0.131
16 | LSM4_Q9Y4Z0_32_NGETYNGHLVSCDNWMNINLR (UniProt Q9Y4Z0) | -0.114 | -0.0668
17 | LRRC8D_Q7L1W4_733_CLDVSYNNISMIPIEIGLLQNLQHLHITGNK (UniProt Q7L1W4) | 0.312 | 0.513
18 | LPXN_O60711_237_VLTAMNQTWHPEHFFCSHCGEVFGAEGFHEK (UniProt O60711) | 0.0815 | 0.126
19 | LRRC40_Q9H9A6_23_DCGTSVPQGLLK (UniProt Q9H9A6) | 0.0344 | -0.167
20 | LSM2_Q9Y333_26_DVVVELKNDLSICGTLHSVDQYLNIK (UniProt Q9Y333) | -0.265 | -0.208
21 | LIN37_Q96GY3_56_DCSIAATGK (UniProt Q96GY3) | -0.0274 | -0.192

From no. 6 as far as 17, as listed above:
Row | Target | probe-labelled cysteine peptide fold change (10 µM) | probe-labelled cysteine peptide fold change (50 µM)
6 | LRCH3_Q96II8_740_IGVPQEQLCLPLHILEEK (UniProt Q96II8) | -0.28 | -0.246
7 | LRPPRC_P42704_130_SCGSLLPELK (UniProt P42704) | 0.166 | 0.0887
8 | LSS_P48449_700_SCAISYTSYR (UniProt P48449) | -0.0251 | -0.0794
9 | LPP_Q93052_524_SLDGIPFTVDAGGLIHCIEDFHK (UniProt Q93052) | 0.00908 | -0.0913
10 | LPCAT1_Q8NF37_443_MYGAQEDGSVGEGDLSCILK (UniProt Q8NF37) | 0.114 | 0.0394
11 | LILRB1_Q8NHL6_49_CQGGQETQEYR (UniProt Q8NHL6) | 0.126 | 0.204
12 | LST1_O00453_90_ADYACIAENKPT (UniProt O00453) | -0.052 | -0.071
13 | LRCH4_O75427_283_GSALGDLAPSRPPSFSPCPAEDLFPGHR (UniProt O75427) | 0.0092 | -0.436
14 | LRCH4_O75427_102_NRFPEVPEAACQLVSLEGLSLYHNCLR (UniProt O75427) | 0.354 | 0.263
15 | LEMD3_Q9Y2U8_547_LAQLAGDHECGSSSQR (UniProt Q9Y2U8) | 0.0851 | -0.131
16 | LSM4_Q9Y4Z0_32_NGETYNGHLVSCDNWMNINLR (UniProt Q9Y4Z0) | -0.114 | -0.0668
17 | LRRC8D_Q7L1W4_733_CLDVSYNNISMIPIEIGLLQNLQHLHITGNK (UniProt Q7L1W4) | 0.312 | 0.513

Additional records.

Row | Target | probe-labelled cysteine peptide fold change (10 µM) | probe-labelled cysteine peptide fold change (50 µM)
22 | LPIN2_Q92539_322_DASMEDTVCTIVKPK (UniProt Q92539) | -0.311 | -0.467
23 | LONP1_P36776_909_AGVTCIVLPAENKK (UniProt P36776) | -0.204 | -0.00337
24 | LETM1_O95202_330_LFEDELTLDNLTRPQLVALCK (UniProt O95202) | 0.387 | -0.263
25 | LIG3_P49916_724_WCTVTK (UniProt P49916) | -0.0602 | 0.143
26 | LONP1_P36776_909_RAGVTCIVLPAENK (UniProt P36776) | 0.213 | 0.226
27 | LGALS1_P09382_43_DSNNLCLHFNPR (UniProt P09382) | -0.135 | -0.037
28 | LENG8_Q96PV6_695_ADPCVAHALALR (UniProt Q96PV6) | -0.0372 | 0.251
29 | LPP_Q93052_499+502_AYHPHCFTCVMCHR (UniProt Q93052) | 0.0338 | 0.162
30 | LDLR_P01130_377+379_CQCEEGFQLDPHTK (UniProt P01130) | 0.0826 | -0.0881
31 | LGALS1_P09382_3_ACGLVASNLNLKPGECLR (UniProt P09382) | -0.0986 | -0.246
32 | LRR1_Q96L50_91_LKEPPVDICLSK (UniProt Q96L50) | -0.00206 | 0.0649
33 | LSS_P48449_484_LCDAVAVLLNMR (UniProt P48449) | -0.0996 | -0.128
34 | LPIN3_Q9BQK8_443_SLRDPNPEHEPEPTLDTVDTIALSLCGGLADSR (UniProt Q9BQK8) | -0.185 | -0.178
35 | LRRFIP1_Q32MZ4_334_DCVDIEVFPAGENTEDQK (UniProt Q32MZ4) | 0.0101 | -0.138
36 | LIMS1_P48059_161+164_NDPYHPDHFNCANCGK (UniProt P48059) | 0.0151 | 0.0736
37 | LMAN2_Q12907_239_NCIDITGVR (UniProt Q12907) | -0.0104 | 0.244
38 | LIN54_Q6MZP7_729_CLMSVINSAGK (UniProt Q6MZP7) | 0.0549 | 0.081
39 | LPXN_O60711_332_GTLCHGCGQPITGR (UniProt O60711) | 0.065 | 0.149
40 | LRRC58_Q96CX6_197_EIPPELGNLPSLNYLVLCDNK (UniProt Q96CX6) | -0.195 | -0.185
41 | LRRC47_Q8N1G4_60_LFTLPLLHYLEVSGCGSLR (UniProt Q8N1G4) | -0.101 | 0.0441
